Test results as given in the supplement of paper PMC10849652.
This is one part of the list.

Protein sequences, listed by entry. Tags and fused reporters are not part of them. Lines headed by an entry give the natural chain unless they say otherwise; changes in a name come on top.
UniProt P24666: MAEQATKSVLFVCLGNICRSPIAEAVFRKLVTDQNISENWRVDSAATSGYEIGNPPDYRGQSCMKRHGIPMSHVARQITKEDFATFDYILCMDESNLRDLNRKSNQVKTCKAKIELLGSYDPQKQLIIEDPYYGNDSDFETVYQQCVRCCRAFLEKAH
UniProt O95573: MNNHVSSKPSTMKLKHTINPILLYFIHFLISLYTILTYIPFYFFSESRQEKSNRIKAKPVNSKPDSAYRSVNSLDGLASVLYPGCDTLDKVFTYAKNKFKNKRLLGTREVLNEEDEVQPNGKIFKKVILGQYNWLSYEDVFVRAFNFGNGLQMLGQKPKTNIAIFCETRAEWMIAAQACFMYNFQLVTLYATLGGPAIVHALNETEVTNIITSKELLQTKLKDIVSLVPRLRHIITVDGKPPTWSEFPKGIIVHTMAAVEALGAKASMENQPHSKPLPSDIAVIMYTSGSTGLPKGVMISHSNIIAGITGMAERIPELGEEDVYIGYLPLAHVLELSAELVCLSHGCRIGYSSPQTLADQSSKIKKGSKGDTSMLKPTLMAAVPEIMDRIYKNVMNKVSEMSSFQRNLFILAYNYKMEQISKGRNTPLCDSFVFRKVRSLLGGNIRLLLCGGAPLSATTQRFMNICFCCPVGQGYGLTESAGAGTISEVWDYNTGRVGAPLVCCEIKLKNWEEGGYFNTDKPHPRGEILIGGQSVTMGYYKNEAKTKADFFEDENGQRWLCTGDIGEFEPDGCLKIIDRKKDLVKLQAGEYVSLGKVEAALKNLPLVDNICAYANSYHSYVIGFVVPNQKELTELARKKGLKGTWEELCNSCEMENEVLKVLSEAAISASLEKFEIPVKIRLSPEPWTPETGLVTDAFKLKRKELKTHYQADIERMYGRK
UniProt Q96BJ3: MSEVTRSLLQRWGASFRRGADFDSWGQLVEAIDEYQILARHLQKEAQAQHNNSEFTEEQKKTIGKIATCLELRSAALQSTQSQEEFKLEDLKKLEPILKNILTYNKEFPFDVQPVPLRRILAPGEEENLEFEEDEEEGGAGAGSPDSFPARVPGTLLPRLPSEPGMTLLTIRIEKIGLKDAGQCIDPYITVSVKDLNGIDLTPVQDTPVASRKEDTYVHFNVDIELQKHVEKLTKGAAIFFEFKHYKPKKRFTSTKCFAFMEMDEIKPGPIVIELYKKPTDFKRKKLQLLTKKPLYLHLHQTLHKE
UniProt Q13155: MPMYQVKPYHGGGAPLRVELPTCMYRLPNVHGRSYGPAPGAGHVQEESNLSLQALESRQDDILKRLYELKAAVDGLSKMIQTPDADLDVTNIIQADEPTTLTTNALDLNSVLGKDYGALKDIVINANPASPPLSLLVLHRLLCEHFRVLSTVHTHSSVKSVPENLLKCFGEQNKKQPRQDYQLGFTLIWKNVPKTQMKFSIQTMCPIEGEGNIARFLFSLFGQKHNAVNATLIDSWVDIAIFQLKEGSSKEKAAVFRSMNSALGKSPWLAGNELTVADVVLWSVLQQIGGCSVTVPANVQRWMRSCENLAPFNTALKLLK
UniProt Q6RW13: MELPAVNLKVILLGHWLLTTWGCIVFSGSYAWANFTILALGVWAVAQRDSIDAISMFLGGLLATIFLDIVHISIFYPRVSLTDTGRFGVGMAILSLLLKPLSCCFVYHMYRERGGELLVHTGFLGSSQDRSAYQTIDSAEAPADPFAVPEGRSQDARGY
UniProt P54922: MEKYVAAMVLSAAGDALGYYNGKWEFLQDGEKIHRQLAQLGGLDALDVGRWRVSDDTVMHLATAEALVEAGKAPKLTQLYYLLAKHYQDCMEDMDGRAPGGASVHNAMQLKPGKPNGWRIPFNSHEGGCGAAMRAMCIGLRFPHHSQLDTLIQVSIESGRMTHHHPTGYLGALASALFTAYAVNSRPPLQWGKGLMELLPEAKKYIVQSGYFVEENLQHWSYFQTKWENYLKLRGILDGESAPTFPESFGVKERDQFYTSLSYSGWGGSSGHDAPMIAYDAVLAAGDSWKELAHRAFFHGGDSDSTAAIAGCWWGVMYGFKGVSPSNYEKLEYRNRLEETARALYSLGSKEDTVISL
UniProt P11766: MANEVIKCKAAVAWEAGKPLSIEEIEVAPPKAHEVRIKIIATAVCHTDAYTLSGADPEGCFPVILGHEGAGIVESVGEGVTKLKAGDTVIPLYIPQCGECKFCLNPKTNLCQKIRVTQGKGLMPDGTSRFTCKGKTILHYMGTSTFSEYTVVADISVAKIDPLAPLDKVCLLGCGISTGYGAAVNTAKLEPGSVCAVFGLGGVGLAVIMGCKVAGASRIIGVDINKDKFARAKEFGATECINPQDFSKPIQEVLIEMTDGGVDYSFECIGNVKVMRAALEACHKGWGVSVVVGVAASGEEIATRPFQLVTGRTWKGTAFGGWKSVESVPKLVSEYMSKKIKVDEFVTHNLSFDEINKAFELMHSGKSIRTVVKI
UniProt O43488: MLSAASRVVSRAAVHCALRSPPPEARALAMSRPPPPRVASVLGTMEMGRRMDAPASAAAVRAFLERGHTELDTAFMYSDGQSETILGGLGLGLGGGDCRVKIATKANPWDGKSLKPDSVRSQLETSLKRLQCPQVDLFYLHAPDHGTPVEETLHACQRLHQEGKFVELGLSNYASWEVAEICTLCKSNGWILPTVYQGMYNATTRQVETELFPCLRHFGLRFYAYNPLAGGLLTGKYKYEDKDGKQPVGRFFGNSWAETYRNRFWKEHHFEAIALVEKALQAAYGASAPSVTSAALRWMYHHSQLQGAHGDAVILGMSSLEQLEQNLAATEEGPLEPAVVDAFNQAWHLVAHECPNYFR
UniProt Q16186: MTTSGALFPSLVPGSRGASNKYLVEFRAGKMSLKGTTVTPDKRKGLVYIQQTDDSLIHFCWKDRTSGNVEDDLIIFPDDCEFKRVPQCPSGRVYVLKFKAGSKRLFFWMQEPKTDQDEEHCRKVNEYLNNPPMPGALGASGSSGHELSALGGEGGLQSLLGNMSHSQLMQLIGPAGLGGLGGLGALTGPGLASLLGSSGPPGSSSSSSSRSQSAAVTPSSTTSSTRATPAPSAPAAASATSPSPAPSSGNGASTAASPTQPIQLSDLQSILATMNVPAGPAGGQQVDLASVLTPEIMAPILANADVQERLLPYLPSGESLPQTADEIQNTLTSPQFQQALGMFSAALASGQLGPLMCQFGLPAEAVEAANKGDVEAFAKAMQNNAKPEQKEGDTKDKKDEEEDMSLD
UniProt O95433, whole entry, looked up: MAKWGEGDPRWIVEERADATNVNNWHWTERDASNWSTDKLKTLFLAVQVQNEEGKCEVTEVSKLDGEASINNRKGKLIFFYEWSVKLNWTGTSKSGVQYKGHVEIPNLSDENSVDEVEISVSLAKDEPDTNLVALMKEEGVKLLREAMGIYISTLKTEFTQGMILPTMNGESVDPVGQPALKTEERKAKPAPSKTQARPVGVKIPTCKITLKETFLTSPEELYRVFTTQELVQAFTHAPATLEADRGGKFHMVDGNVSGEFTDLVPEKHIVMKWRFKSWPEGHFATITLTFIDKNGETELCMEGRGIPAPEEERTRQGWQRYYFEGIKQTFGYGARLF
UniProt Q9UNA0: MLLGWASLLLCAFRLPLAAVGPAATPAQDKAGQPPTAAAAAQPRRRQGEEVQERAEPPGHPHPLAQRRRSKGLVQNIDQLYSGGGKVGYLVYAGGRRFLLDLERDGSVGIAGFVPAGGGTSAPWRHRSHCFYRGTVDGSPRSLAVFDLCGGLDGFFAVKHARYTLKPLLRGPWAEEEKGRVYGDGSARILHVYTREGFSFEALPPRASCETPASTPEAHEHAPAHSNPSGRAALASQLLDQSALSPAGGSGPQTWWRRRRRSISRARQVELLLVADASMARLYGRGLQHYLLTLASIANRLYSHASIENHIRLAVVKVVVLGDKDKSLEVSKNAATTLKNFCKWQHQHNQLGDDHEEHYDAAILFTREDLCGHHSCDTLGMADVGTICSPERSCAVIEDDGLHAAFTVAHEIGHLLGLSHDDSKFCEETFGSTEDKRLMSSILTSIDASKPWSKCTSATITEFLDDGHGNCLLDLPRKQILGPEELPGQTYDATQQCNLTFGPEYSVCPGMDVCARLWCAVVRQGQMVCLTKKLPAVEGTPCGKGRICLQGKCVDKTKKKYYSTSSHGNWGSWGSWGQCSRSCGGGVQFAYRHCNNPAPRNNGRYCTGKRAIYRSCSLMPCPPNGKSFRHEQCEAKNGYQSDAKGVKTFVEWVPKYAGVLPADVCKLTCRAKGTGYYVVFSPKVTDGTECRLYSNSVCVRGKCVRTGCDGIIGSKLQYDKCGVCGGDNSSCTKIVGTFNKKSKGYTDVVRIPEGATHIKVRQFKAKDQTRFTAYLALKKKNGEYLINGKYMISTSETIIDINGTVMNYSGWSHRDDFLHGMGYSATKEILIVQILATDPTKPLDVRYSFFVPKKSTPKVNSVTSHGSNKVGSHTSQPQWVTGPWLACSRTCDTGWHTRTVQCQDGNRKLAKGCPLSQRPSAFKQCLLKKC
UniProt P23526: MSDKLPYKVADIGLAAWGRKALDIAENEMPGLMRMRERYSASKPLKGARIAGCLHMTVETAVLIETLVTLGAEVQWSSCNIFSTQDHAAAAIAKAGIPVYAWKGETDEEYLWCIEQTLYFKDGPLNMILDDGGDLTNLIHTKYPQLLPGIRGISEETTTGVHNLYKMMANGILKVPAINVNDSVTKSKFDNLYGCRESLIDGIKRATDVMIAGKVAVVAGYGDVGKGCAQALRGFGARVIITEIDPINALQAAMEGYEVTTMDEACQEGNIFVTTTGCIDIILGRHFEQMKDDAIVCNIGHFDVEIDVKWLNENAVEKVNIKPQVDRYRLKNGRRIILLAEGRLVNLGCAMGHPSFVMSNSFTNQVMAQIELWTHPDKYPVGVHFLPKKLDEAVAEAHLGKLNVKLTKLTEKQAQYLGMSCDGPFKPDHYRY
UniProt Q12904: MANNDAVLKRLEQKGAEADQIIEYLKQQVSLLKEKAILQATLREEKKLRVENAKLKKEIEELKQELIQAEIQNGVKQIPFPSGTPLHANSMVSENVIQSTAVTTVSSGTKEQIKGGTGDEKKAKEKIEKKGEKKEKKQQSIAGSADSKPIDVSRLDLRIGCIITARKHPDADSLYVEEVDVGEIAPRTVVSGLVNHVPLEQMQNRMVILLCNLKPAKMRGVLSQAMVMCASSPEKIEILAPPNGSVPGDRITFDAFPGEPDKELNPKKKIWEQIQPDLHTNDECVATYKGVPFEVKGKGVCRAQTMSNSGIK
UniProt Q9UPW5: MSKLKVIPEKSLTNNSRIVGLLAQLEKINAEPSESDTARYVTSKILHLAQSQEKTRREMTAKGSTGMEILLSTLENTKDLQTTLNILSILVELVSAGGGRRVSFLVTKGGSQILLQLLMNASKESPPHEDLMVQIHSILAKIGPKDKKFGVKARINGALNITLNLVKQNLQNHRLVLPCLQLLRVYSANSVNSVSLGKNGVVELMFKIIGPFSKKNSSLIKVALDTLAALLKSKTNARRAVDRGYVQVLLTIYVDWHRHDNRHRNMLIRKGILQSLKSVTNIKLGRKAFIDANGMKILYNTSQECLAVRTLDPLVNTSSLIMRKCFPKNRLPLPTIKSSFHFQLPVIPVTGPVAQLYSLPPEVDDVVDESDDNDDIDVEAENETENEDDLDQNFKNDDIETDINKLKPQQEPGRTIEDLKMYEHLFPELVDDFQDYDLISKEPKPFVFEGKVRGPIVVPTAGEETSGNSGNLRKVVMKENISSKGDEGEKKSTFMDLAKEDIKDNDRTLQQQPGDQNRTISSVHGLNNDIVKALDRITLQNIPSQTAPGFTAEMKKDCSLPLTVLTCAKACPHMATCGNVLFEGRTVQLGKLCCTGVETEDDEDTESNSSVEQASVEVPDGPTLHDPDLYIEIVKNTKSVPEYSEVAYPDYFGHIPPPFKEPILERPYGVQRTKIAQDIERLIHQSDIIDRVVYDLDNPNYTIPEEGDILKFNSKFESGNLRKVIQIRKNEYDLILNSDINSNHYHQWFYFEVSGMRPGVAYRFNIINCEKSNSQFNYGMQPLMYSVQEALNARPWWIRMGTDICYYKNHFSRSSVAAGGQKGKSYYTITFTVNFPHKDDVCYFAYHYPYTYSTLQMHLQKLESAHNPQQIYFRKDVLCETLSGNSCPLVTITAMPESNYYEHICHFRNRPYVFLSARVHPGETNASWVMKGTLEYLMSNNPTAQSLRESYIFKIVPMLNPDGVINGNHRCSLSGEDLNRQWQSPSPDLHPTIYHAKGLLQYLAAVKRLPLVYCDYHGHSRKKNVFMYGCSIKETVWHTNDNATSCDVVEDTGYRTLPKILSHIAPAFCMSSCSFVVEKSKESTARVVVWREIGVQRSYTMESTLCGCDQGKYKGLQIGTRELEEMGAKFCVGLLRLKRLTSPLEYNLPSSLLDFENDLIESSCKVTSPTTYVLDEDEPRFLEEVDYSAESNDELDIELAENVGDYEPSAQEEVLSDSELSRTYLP
UniProt Q7Z6V5: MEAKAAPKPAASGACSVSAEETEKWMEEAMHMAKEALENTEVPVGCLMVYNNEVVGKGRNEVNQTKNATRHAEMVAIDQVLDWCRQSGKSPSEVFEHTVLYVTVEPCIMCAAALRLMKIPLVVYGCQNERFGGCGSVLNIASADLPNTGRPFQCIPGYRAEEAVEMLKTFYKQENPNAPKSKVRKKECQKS

Compound: Cc1cc(Nc2cc(CN3CCOCC3)c3nc(C)c(Cc4ccc(Cl)cc4F)n3n2)n[nH]1 [gandotinib]
Experiment: log2 fold change, soluble protein after heating vs DMSO (PISA); higher = thermal stabilisation; K562 lysate, 10 uM; active = over 0.2 and 3.5 SD of the protein, either way, in both replicates (recomputed)
How it was run: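 The values are log-two fold changes in thermal stability compared with solvent controls and come from duplicates. They were obtained by TMTpro 16plex LC-MS/MS, with channel sums equalised, on the supernatant after 21,000xg for 90 min. That supernatant came from crude K562 extract at 1 mg/mL protein treated with 10 μM compound for 30 min, heated for 3 min across 48°C-58°C, pooled and brought to 0.5% NP-40 at 4°C.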

log2 fold change, inactive:
ACP1 (UniProt P24666) -0.142
ACTN4 (UniProt K7EJH8) 0.117
ACSL3 (UniProt O95573) -0.078
AIDA (UniProt Q96BJ3) -0.044
AIMP2 (UniProt Q13155) -0.12
AGTRAP (UniProt Q6RW13) 0.127
ADPRH (UniProt P54922) -0.052
ADH5 (UniProt P11766) 0.049
ACTA1 (UniProt P68133) -0.028
AKR7A2 (UniProt O43488) -0.032
AGO3 (UniProt Q9H9G7) 0.017
ADRM1 (UniProt Q16186) -0.014
AHSA1 (UniProt O95433) -0.018
ADAMTS5 (UniProt Q9UNA0) 0.332
AHCY (UniProt P23526) 0.016
ACTR2 (UniProt P61160) 0.005
ADAM9 (UniProt Q13443) -0.002
AIMP1 isoform 2 (UniProt Q12904) -0.085
ACTB, A0A2R8Y793 -0.009
ACTN1 isoform 3 (UniProt P12814) 0.019
AGTPBP1 (UniProt Q9UPW5) -0.271
ADAT2 (UniProt Q7Z6V5) 0.019
ADPRHL2 (UniProt Q9NX46) -0.079

5 consecutive records already listed, for reference:
log2 fold change, inactive:
AIMP1 isoform 2 (UniProt Q12904) -0.085
ACTB, A0A2R8Y793 -0.009
ACTN1 isoform 3 (UniProt P12814) 0.019
AGTPBP1 (UniProt Q9UPW5) -0.271
ADAT2 (UniProt Q7Z6V5) 0.019
